Data source: PubChem BioAssay AID602196 (INSERM, 2012)

Test: 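Knock-downs that protect lung cancer cells from cisplatin or sensitise them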
System: human A549 lung cancer cells
Reagents: siRNA pair against human genes
Timing: 48 h transfection before cisplatin; time from cisplatin to read-out not stated
Challenge: cisplatin at a dose killing half of control-siRNA cells; exact dose and duration not given
Read-out: 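Cisplatin cell death as a shift from the 50% death seen with control siRNA; siRNAs toxic or growth-blocking alone scored 0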
Reading the numbers: two-siRNA summed score (-2 to +2): higher = both siRNAs protect from cisplatin killing; -2 means both sensitise; mean protection from cisplatin (shift in death) and protection from cisplatin (shift in death), siRNA C and protection from cisplatin (shift in death), siRNA D: higher = protection from cisplatin killing
Rule for the call: 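Each siRNA scores 0 if harmful alone by LDH or WST-1, otherwise +1 if it reduces and -1 if it increases cisplatin killing; a gene is active when both siRNAs agree (sum +2 or -2)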
Calls: active = both siRNAs shift cisplatin killing the same way; inactive = no consistent shift, or siRNA harmful alone
This is a random part of about 23,000 reagents. 455 of all reagents (2%) were called active. 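Active includes both protection and sensitisation; some change values fall well beyond the stated -50 to +50 range.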 A number with no mark means an inactive call. Not given: the amount of reagent.

Gene | two-siRNA summed score (-2 to +2) | mean protection from cisplatin (shift in death) (%) | protection from cisplatin (shift in death), siRNA C (%) | protection from cisplatin (shift in death), siRNA D (%)
ZNF615 | -1 | -2.6 | -14.4 | 9.2
SIDT2 | 0 | 7 | 1.3 | 12.6
RNF32-DT | 0 | 3.7 | 4.4 | 3
PGK2 | 0 | 3.1 | 10.9 | -4.7
HTATSF1 | 0 | -0.6 | 4.7 | -5.9
PLD2 | 0 | 20 | -13.6 | 53.6
SYCE1 | 0 | 5.1 | 3.4 | 6.7
STX11 | 0 | -5.2 | -5.8 | -4.6
FOXRED2 | 1 | 8.9 | -9.5 | 27.4
LOC440821 | 0 | 8.7 | 8.7 | 8.6
PATL1 | 0 | 0.4 | 3.9 | -3
LOC388732 | 0 | 13.7 | 25.5 | 1.8
DRC8 | 0 | 6.2 | 12.4 | 0.1
LRRC42 | 0 | 1.5 | 4.7 | -1.8
B3GNT5 | 0 | 1.3 | -0.8 | 3.5
GTF3C1 | 1 | 21.5 | -1.3 | 44.4
ARHGEF10 | 0 | -6.3 | -9.2 | -3.4
CHRNE | 0 | 2.6 | -1.2 | 6.4
ZC3H12B | 0 | 11.3 | 12.8 | 9.9
OR51T1 | 0 | 4.3 | -5.1 | 13.7
OLR1 | -1 | -26 | -46.8 | -5.3
CWC15 | -1 | -11.5 | -16 | -6.9
CCDC126 | 0 | 3.3 | 9.5 | -2.8
OR52E4 | 0 | 7.7 | 9.4 | 6
INHBB | 0 | -26.6 | -15 | -38.3
TRAPPC3 | 0 | 9 | 1.3 | 16.8
MYCL | 0 | 5.3 | 9.9 | 0.7
YARS1 | 0 | -2.9 | 6.9 | -12.7
SCT | 0 | -2.9 | 2.7 | -8.5
PLAAT4 | 0 | 8.1 | 2.8 | 13.3
LOC388698 | 0 | 6.7 | 4.6 | 8.8
PHF6 | 2 (active) | 26.4 | 21 | 31.8
LOC340171 | -1 | -3.6 | -13.6 | 6.3
KLF15 | 0 | -2.1 | 7.2 | -11.4
ZNF45 | 1 | 4.1 | -2.1 | 10.3
SPINK5 | 0 | 14.7 | 21.2 | 8.1
KERA | 0 | 8.4 | 7.2 | 9.7
RNF175 | 0 | 2.4 | 1.7 | 3.1
KIR2DL3 | 1 | 11.5 | 21.6 | 1.4
LOC286103 | 0 | 8.1 | 6 | 10.2
KRTAP5-2 | 0 | 8.3 | -3.2 | 19.9
VSTM2A | -1 | -1.7 | -13.3 | 10
AZI2 | 0 | 15.6 | 18.1 | 13.2
MAS1 | 0 | 8 | 3.3 | 12.7
WWC2-AS2 | -1 | -10.6 | -18.7 | -2.5
TBX19 | 0 | -1.2 | 1.9 | -4.3
LRRC8A | 1 | 19.1 | 17.2 | 20.9
ZBTB9 | 1 | 3.9 | 16.1 | -8.3
SNX8 | 0 | -17.5 | -41.3 | 6.4
TMEM25 | 0 | 12 | -1.3 | 25.2
LOC401328 | 0 | 7.3 | 9.5 | 5.1
RBM22 | 0 | 5.3 | 13.7 | -3.2
FGF22 | 0 | -2 | 2.8 | -6.8
STPG1 | 0 | -3.8 | -3.7 | -3.9
LOC284240 | 0 | -5.5 | -23.5 | 12.6
MC2R | 0 | -11.7 | -24.5 | 1
COL6A1 | 0 | 4.8 | -0.4 | 10.1
ZNF91 | 1 | 4.8 | 1 | 8.6
ID4 | 0 | 3.3 | 0.7 | 5.9
TSPO2 | 0 | -3.5 | -19.7 | 12.7
SRSF4 | 0 | 4.5 | 7.8 | 1.3
ZSCAN22 | 0 | -6.4 | 11.8 | -24.6
LOC389300 (retired record) | 0 | 0.5 | -7.5 | 8.4
CAVIN3 | 1 | 16.8 | 9.2 | 24.4
LOC441125 | 0 | 11.5 | 17 | 6.1
BTRC | 0 | 19.9 | 14.2 | 25.7
LOC338756 | 1 | 21.1 | 29.5 | 12.7
FKBP4 | 0 | 27.4 | 37.5 | 17.2
ODF1 | 1 | 12.4 | 10 | 14.9
MSANTD4 | 0 | 2.5 | 10.2 | -5.2
LOC441459 | 1 | 13 | 12.5 | 13.4
LOC439987 | 1 | 10.3 | 17.8 | 2.8
ING5 | -1 | -8.5 | -15.9 | -1.1

Sorted by “protection from cisplatin (shift in death), siRNA C (%)” (high to low): some entries from above.
Gene | two-siRNA summed score (-2 to +2) | mean protection from cisplatin (shift in death) (%) | protection from cisplatin (shift in death), siRNA C (%) | protection from cisplatin (shift in death), siRNA D (%)
LOC388732 | 0 | 13.7 | 25.5 | 1.8
DRC8 | 0 | 6.2 | 12.4 | 0.1
LOC440821 | 0 | 8.7 | 8.7 | 8.6
LRRC42 | 0 | 1.5 | 4.7 | -1.8
PATL1 | 0 | 0.4 | 3.9 | -3
B3GNT5 | 0 | 1.3 | -0.8 | 3.5
CHRNE | 0 | 2.6 | -1.2 | 6.4
GTF3C1 | 1 | 21.5 | -1.3 | 44.4
ARHGEF10 | 0 | -6.3 | -9.2 | -3.4
FOXRED2 | 1 | 8.9 | -9.5 | 27.4
